Experimental data as given in article PMC3827329.

Sequences of proteins named here, by UniProt entry; tags and fusion partners are left off. A change or cut given only in a name is not applied to a line headed by its entry.
UniProt P67775: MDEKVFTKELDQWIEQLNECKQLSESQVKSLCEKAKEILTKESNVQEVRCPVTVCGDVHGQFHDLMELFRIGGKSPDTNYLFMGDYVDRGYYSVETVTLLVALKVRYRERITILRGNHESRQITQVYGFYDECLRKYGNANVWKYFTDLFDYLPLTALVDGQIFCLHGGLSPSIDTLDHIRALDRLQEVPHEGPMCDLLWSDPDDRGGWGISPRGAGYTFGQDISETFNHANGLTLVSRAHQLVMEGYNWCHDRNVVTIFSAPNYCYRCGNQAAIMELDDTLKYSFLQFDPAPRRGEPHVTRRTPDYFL

Molecular target: GST-tagged catalytic subunit of PP2A (UniProt P67775)
Assay: pull-down; GST-tagged bait and His-Xpress-KCTD20 coexpressed in COS7 cells; lysates (20 mM HEPES pH 7.5, 150 mM NaCl, 1 mM DTT, 1 mM EDTA, 0.5% Triton X-100) precleared with sepharose 4B, pulled down with glutathione beads, washed five times; immunoblot with anti-Xpress and anti-GST

His-Xpress-KCTD20 (potassium channel tetramerization protein domain containing 20) (from UniProt Q7Z5Y7-1 1-419)
binding: binds

Results are given in words; binding and its absence hold for the method and conditions named. In cells and extracts the contact can be indirect. Binding can be weak; no strength is given.
